Data as given in PubChem BioAssay AID504764 (Drosophila RNAi Screening Center, 2011).
Purpose: 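Genome-wide screen for regulators of Notch-driven gene expression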 (primary screen). Cells: Drosophila Kc167 cells. Reagent: long dsRNA against Drosophila genes. Duration: about 5 days (4 days dsRNA, then 24 h after transfection). Treatment: transfection of constitutively active membrane-tethered Notch lacking the extracellular domain, read 24 h later. Measurement: 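Firefly luciferase from an E(spl)m3 reporter with active Notch, plus control-promoter and uninduced reporter wells for normalisation; unnormalised counts, duplicate wells a and b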. Direction: induced reporter light, run 1, well a and induced reporter light, run 1, well b: higher = more light from the Notch target reporter with active Notch; control promoter light, run 1, well a and control promoter light, run 1, well b: higher = more light from the viral control promoter (cell number, transfection, viability); uninduced reporter light, run 1, well a: higher = more light from the Notch target reporter without active Notch. Active means: 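Hit if the duplicate-averaged log2 ratio of induced to control-promoter light gives a plate-wise z beyond ±2, or induced to uninduced beyond ±1.8; weak-control or discordant-duplicate wells dropped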. Calls: active = modifier hit (raised or lowered Notch signal); inactive = not a hit.
The deposit covers about 22,000 reagents; this is a random part of those that have a named target and a result. Of all reagents, 403 (1.9%) were called active. 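Unnormalised raw counts per well; ratio z-scores behind the hit calls and whether each hit raises or lowers signal are not deposited.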 Unmarked entries are inactive. Names joined by + are all predicted targets of the reagent. Not stated in the record: the amount of reagent.

After knock-down of l(3)S110416 (retired record) [DRSC17094], the screen gave induced reporter light, run 1, well a = 1.48e5; induced reporter light, run 1, well b = 1.80e5; control promoter light, run 1, well a = 2.02e5; control promoter light, run 1, well b = 2.01e5; uninduced reporter light, run 1, well a = 13615.
CG14610 + asRNA:CR42738 [DRSC12554] scored induced reporter light, run 1, well a = 57505; induced reporter light, run 1, well b = 76580; control promoter light, run 1, well a = 92200; control promoter light, run 1, well b = 64575; uninduced reporter light, run 1, well a = 6885.
Depletion of CG33234 [DRSC07994] came out at: induced reporter light, run 1, well a = 2.10e5; induced reporter light, run 1, well b = 1.91e5; control promoter light, run 1, well a = 1.98e5; control promoter light, run 1, well b = 2.42e5; uninduced reporter light, run 1, well a = 17960.
For CG5013 [DRSC15695] the deposit lists induced reporter light, run 1, well a = 2.26e5; induced reporter light, run 1, well b = 2.07e5; control promoter light, run 1, well a = 2.66e5; control promoter light, run 1, well b = 2.61e5; uninduced reporter light, run 1, well a = 17855.
Hyccin [DRSC06983] showed induced reporter light, run 1, well a = 99950; induced reporter light, run 1, well b = 1.06e5; control promoter light, run 1, well a = 2.05e5; control promoter light, run 1, well b = 1.84e5; uninduced reporter light, run 1, well a = 8550.
Knock-down of Elys [DRSC19571] resulted in: induced reporter light, run 1, well a = 1.19e5; induced reporter light, run 1, well b = 1.44e5; control promoter light, run 1, well a = 1.01e5; control promoter light, run 1, well b = 66045; uninduced reporter light, run 1, well a = 9840.
With knock-down of CG42537 [DRSC12519], the screen gave induced reporter light, run 1, well a = 81095; induced reporter light, run 1, well b = 1.01e5; control promoter light, run 1, well a = 74580; control promoter light, run 1, well b = 73665; uninduced reporter light, run 1, well a = 2312.
Silencing of stx (stuxnet) [DRSC18442] resulted in: induced reporter light, run 1, well a = 6555; induced reporter light, run 1, well b = 5980; control promoter light, run 1, well a = 11930; control promoter light, run 1, well b = 11060; uninduced reporter light, run 1, well a = 3178.
stx (stuxnet) [DRSC18443] scored induced reporter light, run 1, well a = 30155; induced reporter light, run 1, well b = 30990; control promoter light, run 1, well a = 73375; control promoter light, run 1, well b = 54050; uninduced reporter light, run 1, well a = 6165.
Depletion of CG7408 [DRSC10841] gave: induced reporter light, run 1, well a = 2.10e5; induced reporter light, run 1, well b = 2.01e5; control promoter light, run 1, well a = 2.74e5; control promoter light, run 1, well b = 2.08e5; uninduced reporter light, run 1, well a = 10050.
With knock-down of Gem4b + Gem4c [DRSC17294], the record shows induced reporter light, run 1, well a = 62195; induced reporter light, run 1, well b = 75345; control promoter light, run 1, well a = 66850; control promoter light, run 1, well b = 70935; uninduced reporter light, run 1, well a = 5570.
Against hdly (hadley) [DRSC15849], the entry reads induced reporter light, run 1, well a = 2.09e5; induced reporter light, run 1, well b = 1.59e5; control promoter light, run 1, well a = 2.14e5; control promoter light, run 1, well b = 2.11e5; uninduced reporter light, run 1, well a = 13740.

Individual results from the entries so far:
CG5013 [DRSC15695], induced reporter light, run 1, well a → 2.26e5
Gem4b + Gem4c [DRSC17294], control promoter light, run 1, well b = 70935
